Data reported in PubChem BioAssay AID248 (DTP/NCI, 2004).
The list is a part of this screen's results and no random one: it is rich in T/C values a quarter to a half above the control, in often repeated tests (any T/C) and in doses without a T/C. Other doses and runs of a compound stand elsewhere. T/C: endpoint of the treated group in % of that of the vehicle group. Some doses have a count of surviving animals in place of a T/C: the source files T/C as zero there, which appears to mark a toxic dose or a test without result, not a measured value. Some doses without a T/C left all or most animals alive at the check, yet need not have been tolerated: the source hardly ever lists a survival T/C far under the control, and the zero likely stands for such cases as well. Survivors were counted at the toxicity check, usually on the fifth day, unless a day is given; later deaths do not show. Schedule codes are those of the source, taken here to give the interval after Q, in days (D) or hours (H), and the number of doses after X. Some schedule codes hold Z or #, which are not explained here. For survival time, the PubChem record calls one and a half times the control and up active, and a quarter to a half above the control has no call in these data; cut-offs in other NCI protocols can differ. Some T/C values are followed by the survivors on the day toxicity was checked, most often the fifth; without a count, all were alive then.

Test system: L1210 leukemia ip in BDF1 mice, survival T/C
Test: NCI In Vivo Anticancer Drug Screen. Data for tumor model L1210 Leukemia (intraperitoneal) in B6D2F1 (BDF1) mice
Conditions: T/C endpoint: mean survival time, higher T/C = longer survival
[1] = dose: 200.0 mg/kg/injection, schedule: Q01DX001 (ip), vehicle: saline
[2] = dose: 400.0 mg/kg/injection, schedule: Q01DX001 (ip), vehicle: saline
[3] = dose: 100.0 mg/kg/injection, schedule: Q01DX009 (ip), vehicle: Klucel (hydroxypropylcellulose) (HPC)
[4] = dose: 200.0 mg/kg/injection, schedule: Q01DX009 (ip), vehicle: Klucel (hydroxypropylcellulose) (HPC)
[5] = dose: 400.0 mg/kg/injection, schedule: Q04DX003 (ip), vehicle: Klucel (hydroxypropylcellulose) (HPC)
[6] = dose: 200.0 mg/kg/injection, schedule: Q04DX003 (ip), vehicle: saline with Tween-80
[7] = dose: 3.12 mg/kg/injection, schedule: Q01DX009 (ip), vehicle: saline with Tween-80
[8] = dose: 50.0 mg/kg/injection, schedule: Q01DX009 (ip), vehicle: saline with Tween-80
[9] = dose: 100.0 mg/kg/injection, schedule: Q01DX009 (ip), vehicle: saline with Tween-80
[10] = dose: 25.0 mg/kg/injection, schedule: Q01DX009 (ip), vehicle: saline
[11] = dose: 100.0 mg/kg/injection, schedule: Q04DX003 (ip), vehicle: saline
[12] = dose: 200.0 mg/kg/injection, schedule: Q04DX003 (ip), vehicle: saline
[13] = dose: 400.0 mg/kg/injection, schedule: Q01DX009 (ip), vehicle: Klucel (hydroxypropylcellulose) (HPC)

## CCN=C(N)c1ccc(N=C(N)c2cccc(C(N)=Nc3ccc(C(N)=NCC)cc3)c2)cc1
dose: 7.5 mg/kg/injection, schedule: Q01DX Z (ip), vehicle: saline
  T/C: 132 % of control
dose: 15.0 mg/kg/injection, schedule: Q01DX Z (ip), vehicle: saline
  survivor count: 1 of 6
dose: 30.0 mg/kg/injection, schedule: Q01DX Z (ip), vehicle: saline
  survivor count: 0 of 6
dose: 60.0 mg/kg/injection, schedule: Q01DX Z (ip), vehicle: saline
  survivor count: 0 of 6
dose: 120.0 mg/kg/injection, schedule: Q01DX Z (ip), vehicle: saline
  survivor count: 0 of 6

## Cc1[nH]nc(C(F)(F)F)c1N=NN1CCC(C(N)=O)CC1
dose: 150.0 mg/kg/injection, schedule: Q01DX001 (ip), vehicle: carboxymethylcellulose (CMC)
  survivor count: 5 of 6
dose: 300.0 mg/kg/injection, schedule: Q01DX001 (ip), vehicle: carboxymethylcellulose (CMC)
  survivor count: 1 of 6

## NNC(=O)C1CC12CC2 (centres undefined)
[1]
  survivor count: 3 of 6
[2]
  survivor count: 0 of 6

## CCCC(O)(CCC)CC(=O)OCC
dose: 100.0 mg/kg/injection, schedule: Q04DX003 (ip), vehicle: saline sonified
  survivor count: 6 of 6

## NCC1CC2CCC1C2 (centres undefined)
dose: 400.0 mg/kg/injection, schedule: Q01DX009 (ip), vehicle: saline
  survivor count: 6 of 6

## C/C(=C\c1ccccc1)[N+](=O)[O-]
[3]
  survivor count: 3 of 6
dose: 100.0 mg/kg/injection, schedule: Q04DX003 (ip), vehicle: Klucel (hydroxypropylcellulose) (HPC)
  survivor count: 6 of 6
dose: 160.0 mg/kg/injection, schedule: Q04DX003 (ip), vehicle: Klucel (hydroxypropylcellulose) (HPC)
  survivor count: 5 of 6
[4]
  survivor count: 0 of 6
dose: 200.0 mg/kg/injection, schedule: Q04DX003 (ip), vehicle: Klucel (hydroxypropylcellulose) (HPC)
  survivor count: 0 of 6
[5]
  survivor count: 0 of 6

## C/C(CSc1ncnc2nc[nH]c12)=N\NC(N)=S
[6]
  survivor count: 0 of 6

## ClCc1c2ccccc2c(CCl)c2ccccc12
[7]
  T/C: 136 % of control [4 of 6 alive]
  survivor count: 6 of 6
dose: 6.25 mg/kg/injection, schedule: Q01DX009 (ip), vehicle: saline with Tween-80
  survivor count: 2 of 6
dose: 8.0 mg/kg/injection, schedule: Q01DX009 (ip), vehicle: carboxymethylcellulose (CMC)
  T/C: 125 % of control
dose: 12.5 mg/kg/injection, schedule: Q01DX009 (ip), vehicle: saline with Tween-80
  survivor count: 5 of 6
dose: 14.0 mg/kg/injection, schedule: Q01DX015 (ip), vehicle: carboxymethylcellulose (CMC)
  survivor count: 2 of 6
dose: 24.0 mg/kg/injection, schedule: Q01DX015 (ip), vehicle: carboxymethylcellulose (CMC)
  survivor count: 2 of 6
dose: 25.0 mg/kg/injection, schedule: Q01DX009 (ip), vehicle: saline with Tween-80
  survivor count: 0 of 6
dose: 40.0 mg/kg/injection, schedule: Q01DX009 (ip), vehicle: carboxymethylcellulose (CMC)
  survivor count: 6 of 6
dose: 40.0 mg/kg/injection, schedule: Q01DX015 (ip), vehicle: carboxymethylcellulose (CMC)
  survivor count: 2 of 6
[8]
  survivor count: 0 of 6
dose: 67.0 mg/kg/injection, schedule: Q01DX015 (ip), vehicle: carboxymethylcellulose (CMC)
  survivor count: 3 of 6
[9]
  survivor count: 0 of 6
dose: 133.4 mg/kg/injection, schedule: Q01DX001 (ip), vehicle: saline
  T/C: 126 % of control
[1]
  T/C: 130 % of control

## c1cc[n+]2c(c1)-c1cccc[n+]1CC2
[10]
  survivor count: 6 of 6
dose: 50.0 mg/kg/injection, schedule: Q01DX009 (ip), vehicle: saline
  survivor count: 0 of 6
[11]
  survivor count: 2 of 6
dose: 150.0 mg/kg/injection, schedule: Q01DX001 (ip), vehicle: saline
  survivor count: 1 of 6
[12]
  survivor count: 1 of 6
dose: 300.0 mg/kg/injection, schedule: Q01DX001 (ip), vehicle: saline
  survivor count: 0 of 6
dose: 400.0 mg/kg/injection, schedule: Q04DX003 (ip), vehicle: saline
  survivor count: 0 of 6

## Cc1ccc(S(=O)(=O)Oc2c(Cl)c(Cl)c(Cl)c(Cl)c2Cl)cc1
dose: 400.0 mg/kg/injection, schedule: Q01DX009 (ip), vehicle: other
  survivor count: 6 of 6

## O=S(=O)(O)c1ccc(S)cc1
dose: 150.0 mg/kg/injection, schedule: Q01DX001 (ip), vehicle: other
  survivor count: 0 of 6
dose: 300.0 mg/kg/injection, schedule: Q01DX001 (ip), vehicle: other
  survivor count: 0 of 6

## CC1=C(/C=C\C(C)=N\NC(=O)c2ccc[n+](C)c2)C(C)(C)CCC1
dose: 100.0 mg/kg/injection, schedule: Q01DX009 (ip), vehicle: saline
  survivor count: 0 of 3
dose: 200.0 mg/kg/injection, schedule: Q01DX009 (ip), vehicle: saline
  survivor count: 0 of 3

## CC(=O)OCCC(C)Nc1ccnc2cc(Cl)ccc12 (centres undefined)
dose: 80.0 mg/kg/injection, schedule: Q04DX003 (ip), vehicle: saline with Tween-80
  survivor count: 5 of 6

## O=C(O)c1ccc(F)c(F)c1F
dose: 400.0 mg/kg/injection, schedule: Q04DX002 (ip), vehicle: other
  survivor count: 1 of 3

## CN1C2CCC(O)C1CC2 (centres undefined)
[2]
  survivor count: 2 of 4

## CC(N)c1ccc(OCCOc2ccc(C(C)(C)CC(C)(C)C)cc2)cc1 (centres undefined)
[5]
  survivor count: 1 of 6

## Nc1nc(CCl)nc(Nc2ccccc2)n1
[13]
  survivor count: 0 of 6
[5]
  survivor count: 3 of 6

## NC(CSS(=O)(=O)O)=NCCCOCc1ccccc1
dose: 50.0 mg/kg/injection, schedule: Q04DX002 (ip), vehicle: Klucel (hydroxypropylcellulose) (HPC)
  survivor count: 0 of 3
dose: 100.0 mg/kg/injection, schedule: Q04DX002 (ip), vehicle: Klucel (hydroxypropylcellulose) (HPC)
  survivor count: 1 of 3
dose: 200.0 mg/kg/injection, schedule: Q04DX002 (ip), vehicle: Klucel (hydroxypropylcellulose) (HPC)
  survivor count: 0 of 3
dose: 400.0 mg/kg/injection, schedule: Q04DX002 (ip), vehicle: Klucel (hydroxypropylcellulose) (HPC)
  survivor count: 0 of 3

## O=[N+]([O-])c1ccc2scc3c4ccccc4nc-3c2c1
dose: 35.0 mg/kg/injection, schedule: Q01DX009 (ip), vehicle: Klucel (hydroxypropylcellulose) (HPC)
  survivor count: 0 of 6
dose: 50.0 mg/kg/injection, schedule: Q04DX003 (ip), vehicle: saline
  survivor count: 6 of 6
dose: 55.0 mg/kg/injection, schedule: Q01DX009 (ip), vehicle: Klucel (hydroxypropylcellulose) (HPC)
  survivor count: 0 of 6
dose: 80.0 mg/kg/injection, schedule: Q01DX009 (ip), vehicle: Klucel (hydroxypropylcellulose) (HPC)
  survivor count: 0 of 6
[3]
  survivor count: 0 of 6
dose: 100.0 mg/kg/injection, schedule: Q04DX003 (ip), vehicle: saline with Tween-80
  survivor count: 5 of 6
[4]
  survivor count: 0 of 6
[6]
  survivor count: 1 of 6
[13]
  survivor count: 0 of 6
dose: 400.0 mg/kg/injection, schedule: Q04DX003 (ip), vehicle: saline with Tween-80
  survivor count: 0 of 6

## Nc1c2c(nc3ccccc13)CCCC2
dose: 6.25 mg/kg/injection, schedule: Q01DX009 (ip), vehicle: saline
  survivor count: 6 of 6
dose: 12.5 mg/kg/injection, schedule: Q01DX009 (ip), vehicle: saline
  survivor count: 6 of 6
[10]
  survivor count: 6 of 6

## CCOC(=O)c1ccc(NC(=O)Nc2ccc(Cl)cc2[N+](=O)[O-])cc1
[4]
  survivor count: 6 of 6

## Clc1ccc(CSc2ncc(Br)c(N3CC3)n2)c(Cl)c1
dose: 59.0 mg/kg/injection, schedule: Q01DX Z (ip), vehicle: methylcellulose (MC)
  survivor count: 5 of 6

## CS(=O)(=O)ON1C(=O)c2ccccc2C1=O
[8]
  survivor count: 2 of 6
[9]
  survivor count: 0 of 6
[11]
  survivor count: 2 of 6
[12]
  survivor count: 0 of 6
